Test results as given in patent US20140024171A1, “PERYLENE TETRACARBOXYLIC ACID BISIMIDE DERIVATIVE, N-TYPE SEMICONDUCTOR, A METHOD FOR PRODUCING N-TYPE SEMICONDUCTOR, AND ELECTRONIC DEVICE” (NATIONAL UNIVERSITY CORPORATION KAGAWA UNIVERSITY, priority 2012, published 2014).
“And” between values parts separate entries of the source, which are not always exact repeats. Equal values may be shown once. For at least one compound, name, drawing or mass did not settle the structure.

Assay: Reduction potential by cyclic voltammetry
Type: physicochemical
Conditions: vs Ag^+/Ag; 0.1 mmol/l in 0.1 mol/l tetrabutylammoniumperchlorate in dichloromethane

C[Si](C)(C)O[Si](C)(C)O[Si](C)(C)CCCN1C(=O)c2ccc3c4ccc5c6c(ccc(c7ccc(c2c37)C1=O)c64)C(=O)N(CCC[Si](C)(C)O[Si](C)(C)O[Si](C)(C)C)C5=O [Compound (1-1), perylene tetracarboxylic acid bis(1,1,1,3,3,5,5-heptamethyltrisiloxanylpropylimide)]
Reduction potential: 0.83 V and 0.83 vs V

C[Si](C)(C)O[Si](C)(C)O[Si](C)(C)CCCCC(CCCC[Si](C)(C)O[Si](C)(C)O[Si](C)(C)C)N1C(=O)c2ccc3c4ccc5c6c(ccc(c7ccc(c2c37)C1=O)c64)C(=O)N(C(CCCC[Si](C)(C)O[Si](C)(C)O[Si](C)(C)C)CCCC[Si](C)(C)O[Si](C)(C)O[Si](C)(C)C)C5=O [Compound (2-1), perylene tetracarboxylic acid bis{di-(1,1,1,3,3,5,5-heptamethyltrisiloxanylbutyl)-methylimide}]
Reduction potential: 0.86 V and 0.86 vs V
